Some of the results follow. These are further read-outs of the screen, such as a control signal, another cell line or another target. No call is given for them. Compounds called inactive in the main read-out are mostly missing here. Potencies come from curve fits of mixed quality, noted in brackets.
Assay: qHTS Assay to Find Inhibitors of Chronic Active B-Cell Receptor Signaling
Conditions: ABC-DLBCL IkBa-CBG/CBR reporter, luminescence ratio (green luciferase fused to IkBa over red control in TMD8 lymphoma cells), 4 h
Outline: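 Cell line TMD8 (human ABC DLBCL), stably expressing tet-inducible CBG68-IkBa fusion and CBR; IMDM/0.5% FBS; cpd up to 46 uM; dox induction, 4 h, 37C/5% CO2; dual luminescence; green/red ratio; MG132 control.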

[1] = measured here: CBR red luminescence, cell number
[2] = measured here: IkBa-CBG green luminescence

In the case of `Nc1nc(SCC(=O)NCCC(c2ccccc2)c2ccccc2)n[nH]1`, the AC50 [1] was 16.4 µM [rising, partial curve, poor fit].

For `Cc1ccc(NC(=O)C(c2ccccc2)N2CCN(CC(=O)N3CCOCC3)CC2)cc1` (stereo not drawn), the AC50 [1] was 0.731 µM [rising, full curve, poor fit].

In the case of `Nc1ccc(-c2nc3ncccc3o2)c(Cl)c1`, the AC50 [1] was 7.08 µM [falling, partial curve, poor fit].

In the case of `COc1ccc(OC)c(-n2nnnc2SCC(=O)O)c1`, the AC50 [1] was 29.1 µM [rising, single point].

In the case of `Cc1ccc(Cn2nc(C)c(NC(=O)CCCn3nc([N+](=O)[O-])c(Cl)c3C)c2C)cc1`, the AC50 [1] was 0.103 µM [falling, full curve, poor fit].

In the case of `O=C(Nc1nc(-c2ccccn2)cs1)c1ccc(Br)s1`, the AC50 [1] was 0.0461 µM [rising, full curve, poor fit].

With `CC1(C(=O)O)CC(C)(C(=O)O)CC(C)(C(=O)O)C1` (stereo not drawn) the AC50 [1] was 5.8 µM [rising, full curve, poor fit].

With `CN(CC(=O)Nc1ccc(F)cc1)C(=O)c1ccc2ccccc2n1` the AC50 [1] was 0.731 µM [rising, full curve, poor fit].

With `O=C(Nc1ccc(Nc2ccccc2)cc1)C(Cl)(Cl)Cl` the AC50 [1] was 1.84 µM [rising, partial curve].

With `CCNC1=C(Cl)C(=O)c2ccccc2C1=O` the AC50 [1] was 20 µM [falling, partial curve].

For `Cc1ccc(-c2ccc(=O)n(CCC(=O)NCc3ccccn3)n2)cc1`, the AC50 [1] was 1.03 µM [falling, full curve, poor fit].

In the case of `O=C(NC1CCCCC1)C(c1ccco1)N(C(=O)c1csnn1)c1cccc(Cl)c1` (stereo not drawn), the AC50 [1] was 10 µM [falling, partial curve].

In the case of `Cc1nc(SCC(=O)Nc2nc3ccccc3s2)n[nH]1`, the AC50 [1] was 35.5 µM [falling, single point].

With `Cc1cc(C(C)(C)C)ccc1OCCCCN1CCCC1` the AC50 [1] was 29.1 µM [falling, single point].

In the case of `Cc1cc(C)c2nc(N3C(=O)C(O)=C(C(=O)c4ccco4)C3c3ccc(O)cc3)sc2c1` (stereo not drawn), the AC50 [1] was 7.31 µM [falling, partial curve, poor fit].

For `CCn1c(SCc2ccc(C(=O)Nc3nccs3)cc2)nnc1-c1ccc(N)cc1`, the AC50 [1] was 29.1 µM [falling, single point] and the AC50 [2] was 4.61 µM [rising, partial curve, poor fit].

With `O=c1[nH]c(SCc2ccc(Cl)cc2)nc2ccsc12` the AC50 [1] was 10 µM [falling, partial curve, poor fit].

With `COc1ccc(OC)c(-c2csc(NC(=O)COC(=O)C3(C)CC3(Cl)Cl)n2)c1` (stereo not drawn) the AC50 [1] was 29.1 µM [falling, single point].

For `COc1c(O)ccc2c1CN1CCc3cc4c(cc3C1C2)OCO4` (stereo not drawn), the AC50 [1] was 22.4 µM [falling, single point].

For `CN(C)/C=C/C(=O)c1cnc(-c2ccc(Cl)cc2)s1`, the AC50 [1] was 17.8 µM [falling, single point].

In the case of `COC(=O)c1ccccc1NC1c2ccccc2C(=O)N1c1cccnc1` (stereo not drawn), the AC50 [1] was 20.6 µM [falling, single point].

With `COc1cccc2[nH]c(C(=O)NN)c(N)c12` the AC50 [1] was 7.08 µM [falling, partial curve, poor fit].

With `COCCNC(=S)N/N=C(\C)c1cccc(C(F)(F)F)c1` the AC50 [1] was 35.5 µM [falling, single point] and the AC50 [2] was 25.1 µM [falling, single point].

For `Nc1nc2c(ncn2C2C[C@H](O)[C@@H](CO)O2)c(=O)[nH]1` (stereo partly drawn), the AC50 [1] was 20.6 µM [rising, partial curve, poor fit].

For `CCCc1nn(C)c(C(=O)Nc2ccc(Cl)cc2)c1Cl`, the AC50 [1] was 10.3 µM [rising, partial curve].

For `O=C1CSc2ccc(C(=O)NCCc3ccc(Cl)cc3Cl)cc2N1`, the AC50 [1] was 14.6 µM [falling, partial curve, poor fit].

For `CC(C)C(=O)Nc1ccc(Oc2ccc3c(c2)C(=O)NC3=O)cc1`, the AC50 [1] was 2.82 µM [rising, full curve, poor fit].

For `O=C(Cn1cnc2cc([N+](=O)[O-])ccc2c1=O)Nc1ccc(Br)cc1`, the AC50 [1] was 35.5 µM [falling, single point].

In the case of `Clc1nc2c(-c3ccccc3)nnn2c2ccccc12`, the AC50 [1] was 0.0794 µM [falling, full curve, poor fit].

For `CN(CC(O)COCc1ccccc1F)C1CCCCC1` (stereo not drawn), the AC50 [1] was 10 µM [rising, partial curve].

With `O=C(COc1ccc(Cl)cc1)NCc1nnc(SCC(=O)N2CCCc3ccccc32)o1` the AC50 [1] was 23.1 µM [rising, single point].

With `COc1ccc(C(=O)Nc2ccc(C3CC3(Cl)Cl)cc2)cc1` (stereo not drawn) the AC50 [1] was 35.5 µM [rising, single point].

With `O=C(CSc1nc2ccccc2s1)N/N=C/c1ccc(C(=O)O)cc1` the AC50 [1] was 1.26 µM [falling, full curve].

For `CCn1c(SCC(=O)Nc2cccc(OC)c2)nc2ccccc2c1=O`, the AC50 [1] was 0.501 µM [falling, full curve].

With `COc1ccc(CCNc2nc(SCc3ccc(F)cc3)nc3ccccc23)cc1OC` the AC50 [1] was 10 µM [falling, partial curve, poor fit].

With `CCc1nn(CC(=O)N2CCN(c3cc(C)ccc3C)CC2)c(=O)c2cc3occc3n12` the AC50 [1] was 5.62 µM [rising, single point].

With `COc1ccc(CCNS(=O)(=O)c2ccc(Br)cc2)cc1` the AC50 [1] was 0.631 µM [rising, full curve].

With `Cc1cc(=O)[nH]c2nnc(SCC(=O)Nc3ccc(F)cc3F)n12` the AC50 [1] was 3.16 µM [falling, single point].

In the case of `Cc1cc(Nc2cccc(C(=O)O)c2)n2ncnc2n1`, the AC50 [1] was 11.2 µM [falling, partial curve].

With `N#Cc1c2n(c(=S)n(-c3ccc(F)cc3)c1=O)CCCCC2` the AC50 [1] was 0.891 µM [falling, full curve].

With `Cc1[nH]nc2c1C(c1ccsc1C)C(C#N)=C(N)O2` (stereo not drawn) the AC50 [1] was 16.4 µM [falling, single point].

With `Cn1c(/C=N/NC(=O)c2ccccc2Br)nc2ccccc21` the AC50 [1] was 15.8 µM [falling, partial curve, poor fit].

With `CCOC(=O)COc1cccc2c(=O)n(CC(=O)NCc3ccccc3)ccc12` the AC50 [1] was 8.91 µM [rising, partial curve] and the AC50 [2] was 10 µM [falling, partial curve].

With `CCCSc1ccc(C(=O)Nc2ccc(Cl)cc2)cn1` the AC50 [1] was 3.98 µM [falling, partial curve, poor fit].

In the case of `CC(C)NC(=O)CC(=O)N/N=C/c1ccccc1F`, the AC50 [1] was 5.01 µM [rising, single point].

With `COc1ccc(NC(=O)Nc2ccc(Br)cn2)cc1` the AC50 [1] was 1.58 µM [rising, full curve, poor fit].

In the case of `O=C1N/C(=C/c2cccn2-c2ccc(F)cc2)C(=O)N1Cc1ccccc1`, the AC50 [1] was 16.4 µM [rising, partial curve, poor fit].

With `Cc1cccc(C)c1OCC(=O)N1CC2(C)CC1CC(C)(C)C2` (stereo not drawn) the AC50 [1] was 23.1 µM [rising, single point].

For `CN(C)c1ccc(NC(=O)CSc2nc3ccccc3c(=O)n2C2CCCCC2)cc1`, the AC50 [1] was 6.31 µM [rising, single point].

For `CCN1CCCC1CNC(=O)c1cc2c(=O)n(C)c3ccccc3c2n1C` (stereo not drawn), the AC50 [1] was 0.146 µM [falling, full curve, poor fit].

For `Cc1sc(NC(=O)C2CCCC2)c(C#N)c1C`, the AC50 [1] was 20.6 µM [rising, single point].

In the case of `Cc1cc(C(=O)Nc2ccccc2C(=O)O)ccc1NC(=O)COc1cccc([N+](=O)[O-])c1`, the AC50 [1] was 0.891 µM [falling, full curve, poor fit].

In the case of `Cn1c(-c2sccc2OCc2ccc(Cl)cc2Cl)n[nH]c1=S`, the AC50 [1] was 35.5 µM [falling, single point].

With `CCN(CC)c1ccc(/C=N/n2c(C)nc3ccccc3c2=O)cc1` the AC50 [1] was 25.1 µM [falling, single point].

In the case of `CCOc1ccccc1N(CC(=O)NC1CCCCC1)C(=O)CCCC(=O)Nc1ccccn1`, the AC50 [1] was 12.6 µM [falling, partial curve].

In the case of `Cc1ccc(C(=O)NCC(=O)OCC(=O)c2ccccc2)s1`, the AC50 [1] was 1.3 µM [rising, full curve, poor fit].

In the case of `CC(=O)c1sc(NC(=O)CSC(C)C(=O)Nc2cc(C)on2)nc1-c1ccccc1` (stereo not drawn), the AC50 [1] was 29.1 µM [falling, single point].

For `CC1C(=O)C(C)C(c2cc(Cl)ccc2O)NC1c1cc(Cl)ccc1O` (stereo not drawn), the AC50 [1] was 35.5 µM [falling, partial curve, poor fit].

For `C[C@H](/C=C/[C@@]1(O)[C@H](C)C[C@H](O)CC1(C)C)O[C@@H]1O[C@H](CO)[C@@H](O)[C@H](O)[C@H]1O`, the AC50 [1] was 29.1 µM [falling, partial curve, poor fit].

For `Cc1ccc(NC(=O)CCNC(=O)c2ccccc2Cl)cc1S(=O)(=O)N1CCOCC1`, the AC50 [1] was 20.6 µM [rising, partial curve].

In the case of `Cc1cccn2c(=O)c3cc(C#N)c(=NC(=O)c4cccs4)n(CC(C)C)c3nc12`, the AC50 [1] was 3.98 µM [falling, single point].

For `COc1ccc(-c2cc(C(F)(F)F)n3nc(C(=O)NCCCn4ccnc4)cc3n2)cc1`, the AC50 [1] was 14.6 µM [rising, partial curve] and the AC50 [2] was 18.4 µM [falling, partial curve].

In the case of `COc1ccc(CCN=Cc2ccccc2O)cc1OC`, the AC50 [1] was 0.282 µM [rising, full curve, poor fit].

For `Nc1ccc(C(=O)N/N=C/c2cn(Cc3ccc(F)cc3)c3ccccc23)cc1`, the AC50 [1] was 5.62 µM [falling, full curve].
